Our source for the binding values is article PMC4299599, “Quantification of cytosolic interactions identifies Ede1 oligomers as key organizers of endocytosis” (Molecular Systems Biology, 2014).

Assay in all cases: condition: 1000 nM (only Kdeff-values < 1000 nM are shown); fluorescence cross-correlation spectroscopy (FCCS); in the cytoplasm of living yeast cells; first-named protein green (3myeGFP or 1myeGFP; eGFP for Don1), second red (3mCherry); self-interaction in diploid strains with one allele of each colour; apparent or effective KD (Kdeff) from single-cell measurements; only Kdeff values < 1000 nM are shown; values for …
What all share (conditions): remark: other sources report otherwise

Experiment [1] has as its target T1, End3 (S. cerevisiae), P39013.
T1 chain: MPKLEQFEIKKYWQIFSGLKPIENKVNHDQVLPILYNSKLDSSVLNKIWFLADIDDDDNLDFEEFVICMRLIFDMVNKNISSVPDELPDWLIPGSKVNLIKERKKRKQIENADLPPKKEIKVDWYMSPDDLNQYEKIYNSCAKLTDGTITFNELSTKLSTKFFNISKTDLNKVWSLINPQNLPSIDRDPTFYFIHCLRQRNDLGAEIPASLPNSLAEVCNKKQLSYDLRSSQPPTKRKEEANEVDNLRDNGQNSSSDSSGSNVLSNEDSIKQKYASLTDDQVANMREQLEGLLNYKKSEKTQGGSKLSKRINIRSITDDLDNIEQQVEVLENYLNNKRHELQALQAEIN

Experiment [2] addresses T2, Ede1 (S. cerevisiae), P34216.
T2 chain: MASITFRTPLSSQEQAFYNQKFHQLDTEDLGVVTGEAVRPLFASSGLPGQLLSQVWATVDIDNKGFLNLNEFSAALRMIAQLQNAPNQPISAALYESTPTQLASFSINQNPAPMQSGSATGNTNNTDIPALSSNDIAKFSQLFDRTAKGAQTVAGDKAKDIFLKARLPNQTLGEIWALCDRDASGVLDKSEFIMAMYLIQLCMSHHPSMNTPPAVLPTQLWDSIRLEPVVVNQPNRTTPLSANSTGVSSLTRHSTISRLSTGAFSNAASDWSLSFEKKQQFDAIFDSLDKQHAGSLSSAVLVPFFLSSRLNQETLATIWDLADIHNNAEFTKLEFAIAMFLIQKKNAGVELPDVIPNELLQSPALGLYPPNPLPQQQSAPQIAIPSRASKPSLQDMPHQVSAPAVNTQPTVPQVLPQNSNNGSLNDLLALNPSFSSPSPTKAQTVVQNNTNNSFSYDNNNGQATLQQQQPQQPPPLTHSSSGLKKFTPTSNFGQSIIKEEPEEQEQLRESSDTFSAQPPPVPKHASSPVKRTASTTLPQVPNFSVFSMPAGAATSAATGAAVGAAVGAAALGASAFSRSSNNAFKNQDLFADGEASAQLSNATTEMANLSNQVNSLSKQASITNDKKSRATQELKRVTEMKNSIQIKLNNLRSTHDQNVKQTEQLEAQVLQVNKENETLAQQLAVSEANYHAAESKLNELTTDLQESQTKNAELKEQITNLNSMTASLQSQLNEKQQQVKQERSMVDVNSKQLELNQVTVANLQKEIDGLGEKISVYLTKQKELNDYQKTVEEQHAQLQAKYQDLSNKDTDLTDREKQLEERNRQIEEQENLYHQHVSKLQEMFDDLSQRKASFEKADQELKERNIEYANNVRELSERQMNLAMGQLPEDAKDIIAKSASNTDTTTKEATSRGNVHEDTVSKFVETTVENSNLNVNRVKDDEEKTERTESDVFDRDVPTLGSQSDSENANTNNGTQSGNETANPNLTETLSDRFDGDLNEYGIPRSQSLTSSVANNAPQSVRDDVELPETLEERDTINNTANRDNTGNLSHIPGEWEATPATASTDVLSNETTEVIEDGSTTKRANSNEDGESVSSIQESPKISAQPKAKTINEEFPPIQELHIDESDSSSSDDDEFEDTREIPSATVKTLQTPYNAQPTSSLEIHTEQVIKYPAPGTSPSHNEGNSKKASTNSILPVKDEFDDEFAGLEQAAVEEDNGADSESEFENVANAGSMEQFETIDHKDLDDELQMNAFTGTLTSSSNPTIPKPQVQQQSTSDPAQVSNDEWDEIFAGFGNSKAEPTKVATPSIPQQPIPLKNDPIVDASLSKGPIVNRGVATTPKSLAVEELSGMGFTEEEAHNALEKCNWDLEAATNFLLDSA

In experiment [3] the target is T3, Pan1 (S. cerevisiae), P32521.
T3 chain: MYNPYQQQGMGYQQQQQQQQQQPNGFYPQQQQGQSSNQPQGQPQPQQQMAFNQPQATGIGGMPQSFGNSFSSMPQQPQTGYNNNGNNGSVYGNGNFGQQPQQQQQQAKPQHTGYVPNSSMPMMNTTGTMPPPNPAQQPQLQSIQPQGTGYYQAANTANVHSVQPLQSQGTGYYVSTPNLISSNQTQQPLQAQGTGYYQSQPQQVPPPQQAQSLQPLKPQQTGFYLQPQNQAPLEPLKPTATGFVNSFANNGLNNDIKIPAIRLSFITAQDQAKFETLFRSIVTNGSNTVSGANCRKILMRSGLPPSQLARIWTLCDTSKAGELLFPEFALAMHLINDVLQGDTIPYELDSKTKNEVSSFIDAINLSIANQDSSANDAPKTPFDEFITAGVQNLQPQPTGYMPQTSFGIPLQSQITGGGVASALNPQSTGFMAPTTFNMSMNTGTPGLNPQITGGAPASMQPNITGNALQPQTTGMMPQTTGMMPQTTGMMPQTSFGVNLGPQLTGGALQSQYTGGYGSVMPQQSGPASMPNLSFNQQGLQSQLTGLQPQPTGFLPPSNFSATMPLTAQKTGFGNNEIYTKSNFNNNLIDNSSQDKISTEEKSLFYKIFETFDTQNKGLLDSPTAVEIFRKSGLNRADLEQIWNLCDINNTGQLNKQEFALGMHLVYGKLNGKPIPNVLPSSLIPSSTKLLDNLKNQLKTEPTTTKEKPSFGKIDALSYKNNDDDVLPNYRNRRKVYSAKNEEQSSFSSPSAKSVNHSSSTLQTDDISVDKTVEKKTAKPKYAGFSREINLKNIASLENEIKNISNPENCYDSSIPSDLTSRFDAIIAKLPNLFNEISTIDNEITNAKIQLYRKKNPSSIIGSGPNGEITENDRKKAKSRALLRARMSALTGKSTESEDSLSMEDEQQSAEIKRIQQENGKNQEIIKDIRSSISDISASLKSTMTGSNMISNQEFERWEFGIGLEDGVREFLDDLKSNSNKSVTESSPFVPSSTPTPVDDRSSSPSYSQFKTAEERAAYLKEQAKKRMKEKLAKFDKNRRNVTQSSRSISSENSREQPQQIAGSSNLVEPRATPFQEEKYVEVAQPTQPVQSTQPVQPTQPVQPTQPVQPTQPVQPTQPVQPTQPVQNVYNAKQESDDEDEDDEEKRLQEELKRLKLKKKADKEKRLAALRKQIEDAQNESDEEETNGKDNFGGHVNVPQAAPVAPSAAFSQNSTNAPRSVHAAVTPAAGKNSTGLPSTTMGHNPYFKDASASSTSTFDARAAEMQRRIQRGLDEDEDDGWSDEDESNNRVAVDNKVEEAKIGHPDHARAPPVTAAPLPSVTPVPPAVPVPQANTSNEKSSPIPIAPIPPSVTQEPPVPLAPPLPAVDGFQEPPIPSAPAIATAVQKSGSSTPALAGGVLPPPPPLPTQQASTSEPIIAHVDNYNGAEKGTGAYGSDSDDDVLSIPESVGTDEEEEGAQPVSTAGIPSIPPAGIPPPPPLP

Results are given in words; binding and its absence hold for the method and conditions named.

B1: Yap1802, P53309 1-568 (protein)
chain: MSSLYTKLVKGATKIKMAPPKQKYVDPILSGTSSARGLQEITHALDIRLSDTAWTIVYKALIVLHLMIQQGEKDVTLRHYSHNLDVFQLRKISHTTKWSSNDMRALQRYDEYLKTRCEEYGRLGMDHLRDNYSSLKLGSKNQLSMDEELDHVESLEIQINALIRNKYSVSDLENHLLLYAFQLLVQDLLGLYNALNEGVITLLESFFELSIEHAKRTLDLYKDFVDMTEYVVRYLKIGKAVGLKIPVIKHITTKLINSLEEHLREETKRQRGEPSEPQQDRKPSTAISSTSSHNNNSNDKNKSIAQKKLEQIREQKRLLEQQLQNQQLLISPTVPQDAYNPFGSQQQDLNNDTFSFEPTQPQMTAQVPQPTANPFLIPQQQQQALQLTSASTMPQPSEIQITPNLNNQQTGMYASNLQYTPNFTGSGFGGYTTTENNAIMTGTLDPTKTGSNNPFSLENIAREQQQQNFQNSPNPFTLQQAQTTPILAHSQTGNPFQAQNVVTSPMGTYMTNPVAGQLQYASTGAQQQPQMMQGQQTGYVMVPTAFVPINQQQQQQQHQQENPNLIDI
Regarding B1, in experiment [1], the binding entry is “no binding”.

B2: Apl1, P27351 1-700 (protein)
chain: MSDQKVFARYKANEIVTDLQHFGVKKFKSNITRRKNALRKIIANLVLGNYGEMSVLFSELLKFWQIEDDLEVKRICHEYIRVIGALKPQQAREALPFIMDDFKSRDEKLQIMALRTLVLVPVKELSDQAFDCIISLVNHKSPPEQVTRTAIYALLDLDEIDHERVLGLSSILHDIVKAQSSSPEVIVAALHTLYSIHEKNANMEPFRIPLELAFDMLELLPELNEWNKATVLEVLTTSVVPQHYLDTHEMIELALPYLQQVNTYVVLNSLKFIMYLLNYVDVIKETLAEKLSNSVIALLDKPPELQFLVLRNVILLLLSRESSLLRLDISYFFIEYNDPIYIKDTKLECLYLLANKETLPRILEELEQYATDIDIQMSRKSVRAIGNLAVKLDEDSVHDCVAVLLDLLEFGVDYVVQEIISVFRNILRKYPNNFKANVTELVKHTEVVQEPESKNAMIWIITQYSDVIPNYLELFRVFSSNMFSETLEVQFSILNSAIKFFIRSPTKETEELCMDLLKGCIDHENNPDLRDKTLMYWRLLSLTKTSRISNAITFESLKSVLDGELPLIEMNTKLDPTVLEELELNIGTIVSIYLKPVSHIFRLNKTKLLPQSPILNPNKDLLPVVGNSFPPTGANRDRQNSESQSSTKSRKTAMMDDYDKPAEKINQLKGKRKSSSNNPSKLSRKPSTLLRKLSMKRPFS
B2: the binding entry in experiment [2] was “no binding”.

B3: Yap1801, P38856 1-637 (protein)
chain: MTTYFKLVKGATKIKSAPPKQKYLDPILLGTSNEEDFYEIVKGLDSRINDTAWTIVYKSLLVVHLMIREGSKDVALRYYSRNLEFFDIENIRGSNGSASGDMRALDRYDNYLKVRCREFGKIKKDYVRDGYRTLKLNSGNYGSSRNKQHSINIALDHVESLEVQIQALIKNKYTQYDLSNELIIFGFKLLIQDLLALYNALNEGIITLLESFFELSHHNAERTLDLYKTFVDLTEHVVRYLKSGKTAGLKIPVIKHITTKLVRSLEEHLIEDDKTHNTFVPVDSSQGSAGAVVAKSTAQERLEQIREQKRILEAQLKNEQVAISPALTTVTAAQSYNPFGTDSSMHTNIPMAVANQTQQIANNPFVSQTQPQVMNTPTAHTEPANLNVPEYAAVQHTVNFNPVQDAGVSAQQTGYYSINNHLTPTFTGAGFGGYSVSQDTTAASNQQVSHSQTGSNNPFALHNAATIATGNPAHENVLNNPFSRPNFDEQNTNMPLQQQIISNPFQNQTYNQQQFQQQKMPLSSINSVMTTPTSMQGSMNIPQRFDKMEFQAHYTQNHLQQQQQQQQQQQQQQQQQPQQGYYVPATAGANPVTNITGTVQPQNFPFYPQQQPQPEQSQTQQPVLGNQYANNLNLIDM
As to B3, the binding result in experiment [3] was “no binding”.
